Assay results published in paper doi:10.1101/2024.02.16.579611.

System: RNAP-σ70 holoenzyme (Eσ70) + KorB
Assay: native MS
Settings: 2.5-fold excess KorB, Eσ70 dissociated, no ternary complex

GTTACGCCAAGGACGAGTTTTAGCGGCTAAAGGTGTTGACGTGCGAGAAATGTTTAGCTAAACTTCTCTCATGTGCTGGCGGCTGTCACCGCTATGTTCA (double strand) [PkorA 100 bp]
binding result: no binding

Construct, isoform or probe ends are uncertain for at least one entry. Negatives hold for the conditions tested.
